Data: paper doi:10.1101/2025.05.23.655736 (bioRxiv, 2025)
Residue numbers refer to the chain shown, from its start. In names and notes the source's numbering stands. No constants are given. Whether binding was seen depends on the method and setting. In cells and extracts the contact can be indirect. Binding calls can cover weak binding; strength is not graded here.

B1: Streptococcus pneumoniae PcsB, wild type, with PelB leader (in the FtsEX-PcsB complex) (enzyme, UniProt Q8DMY4 28-392)
chain: ETTDDKIAAQDNKISNLTAQQQEAQKQVDQIQEQVSAIQAEQSNLQAENDRLQAESKKLEGEITELSKNIVSRNQSLEKQARSAQTNGAVTSYINTIVNSKSITEAISRVAAMSEIVSANNKMLEQQKADKKAISEKQVANNDAINTVIANQQKLADDAQALTTKQAELKAAELSLAAEKATAEGEKASLLEQKAAAEAEARAAAVAEAAYKEKRASQQQSVLASANTNLTAQVQAVSESAAAPVRAKVRPTYSTNASSYPIGECTWGVKTLAPWAGDYWGNGAQWATSAAAAGFRTGSTPQVGAIACWNDGGYGHVAVVTAVESTTRIQVSESNYAGNRTIGNHRGWFNPTTTSEGFVTYIYAD
B2: Streptococcus pneumoniae PcsB (A194C/A231C) (enzyme, UniProt Q8DMY4 28-392)
chain: B1 chain with A167C, A204C

Target: Streptococcus pneumoniae FtsEX complex (Streptococcus pneumoniae)
Assay: co-purification

Row | Binder | binding
1 | B1 | binds
2 | B2 | binds
